According to paper PMC7281231:

Target: ORF3 with deleted N terminus (lacking amino acids 1-73), Myc-tagged (ΔN-ORF3-Myc) (porcine epidemic diarrhea virus (PEDV))
Test: co-IP; HEK293T cells co-transfected with the two plasmids, lysed at 24 hpt in IP lysis buffer; cleared lysates with anti-Myc agarose overnight at 4 °C; washed with TBST (25 mM Tris-HCl, 0.15 M NaCl, 0.05% tween 20, pH 7.2); blots with anti-Flag, anti-HA and anti-Myc

B1: inhibitor of nuclear factor kappa-B kinase subunit beta with Flag-tag at the C-terminus (IKBKB-Flag) (enzyme, UniProt O14920 1-756)
chain: MSWSPSLTTQTCGAWEMKERLGTGGFGNVIRWHNQETGEQIAIKQCRQELSPRNRERWCLEIQIMRRLTHPNVVAARDVPEGMQNLAPNDLPLLAMEYCQGGDLRKYLNQFENCCGLREGAILTLLSDIASALRYLHENRIIHRDLKPENIVLQQGEQRLIHKIIDLGYAKELDQGSLCTSFVGTLQYLAPELLEQQKYTVTVDYWSFGTLAFECITGFRPFLPNWQPVQWHSKVRQKSEVDIVVSEDLNGTVKFSSSLPYPNNLNSVLAERLEKWLQLMLMWHPRQRGTDPTYGPNGCFKALDDILNLKLVHILNMVTGTIHTYPVTEDESLQSLKARIQQDTGIPEEDQELLQEAGLALIPDKPATQCISDGKLNEGHTLDMDLVFLFDNSKITYETQISPRPQPESVSCILQEPKRNLAFFQLRKVWGQVWHSIQTLKEDCNRLQQGQRAAMMNLLRNNSCLSKMKNSMASMSQQLKAKLDFFKTSIQIDLEKYSEQTEFGITSDKLLLAWREMEQAVELCGRENEVKLLVERMMALQTDIVDLQRSPMGRKQGGTLDDLEEQARELYRRLREKPRDQRTEGDSQEMVRLLLQAIQSFEKKVRVIYTQLSKTVVCKQKALELLPKVEEVVSLMNEDEKTVVRLQEKRQKELWNLLKIACSKVRGPVSGSPDSMNASRLSQPGQLMSQPSTASNSLPEPAKKSEELVAEAHNLCTLLENAIQDTVREQDQSFTALDWSWLQTEEEEHSCLEQAS
- binding: binds

Results are given in words; binding and its absence hold for the method and conditions named. In cells and extracts the contact can be indirect. A result given as binding can be weak or reduced; the word gives no strength. Sequences can lack the tags named with a protein.
